No end group written: not given here.
Key:
Gram-negative bacteria = conditions: HC10 / GM of Gram-negative MICs
Protocol: (§1) The antimicrobial activities of Pap12 peptides were tested against four standard Gram-negative bacteria (E. coli, Pseudomonas aeruginosa, Acinetobacter baumannii, and Salmonella typhimurium), three standard Gram-positive bacteria (Staphylococcus aureus, Bacillus subtilis, and Staphylococcus epidermidis), and five MDR bacteria (MDREC CCARM 1229, MDRPA CCARM 2002, MDRAB CCARM 12035, MDRST CCARM 8007, and MRSA CCARM 3126) using the microbroth dilution method. The relative antibacterial activities were compared based on geometric means of MICs (GM).
(§2) The therapeutic index (TI) was calculated (Table 2) using HC10, the peptide concentration required to induce 10% hemolysis.
(§3) Peptides were treated with 2 × 10^6 CFU/mL bacterial suspensions in 1% peptone media for 16 h at 37 °C.

Gram-positive bacteria = conditions: HC10 / GM of Gram-positive MICs
Protocol: as §1, §2, §3

Compound	Therapeutic index = HC10/MIC, Gram-negative bacteria (Gram-negative bacteria)	Therapeutic index = HC10/MIC, Gram-positive bacteria (Gram-positive bacteria)
CC[C@H](C)[C@H](NC(=O)CN)C(=O)NCC(=O)N[C@@H](C)C(=O)N[C@H](C(=O)N[C@@H](CC(C)C)C(=O)N[C@@H](CCCCN)C(=O)N[C@H](C(=O)N[C@@H](CC(C)C)C(=O)N[C@H](C(=O)N[C@H](C(=O)NCC(=O)N[C@@H](CC(C)C)C(=O)N1CCC[C@H]1C(=O)N[C@@H](C)C(=O)N[C@@H](CC(C)C)C(=O)N[C@H](C(=O)N[C@@H](CO)C(=O)N[C@@H](Cc1c[nH]c2ccccc12)C(=O)N[C@H](C(=O)N[C@@H](CCCCN)C(=O)N[C@@H](CCCNC(=N)N)C(=O)N[C@@H](CCCCN)C(=O)N[C@@H](CCCNC(=N)N)C(=O)N[C@@H](CCC(N)=O)C(=O)N[C@@H](CCC(N)=O)C(N)=O)[C@@H](C)CC)[C@@H](C)CC)[C@@H](C)O)[C@@H](C)O)C(C)C)C(C)C [Melittin, reference compound]	0.1	0.3
RWKIFKKAAKKA-NH2 [Pap12-4]	9.1	9.1
RWKIFKKAAKKG-NH2 [Pap12-2]	11.1	10.0
RWKIFKKIEKVG-NH2 [Pap12-1]	5.7	3.8
RWKIFKKVVKKA-NH2 [Pap12-5]	14.3	14.3
RWKIFKKVVKKG-NH2 [Pap12-3]	12.5	14.3
RWKIFKKVVKKW-NH2 [Pap12-6]	16.7	14.3
